Experimental data: PubChem BioAssay AID504808 (Drosophila RNAi Screening Center, 2011)
In all, the deposit lists about 21,000 reagents; below is an unselected part of those with a known target gene and a result. Of all reagents, 18 (0.084%) were called active. 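Raw counts without plate normalisation, one of two replicates; the ratio scores behind the calls were not deposited.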 No sequences are given here. Not given: the amount of reagent, the time to read-out.

- Screen: 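Fly genes required to hold E2F transcription in check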 (primary screen)
- System: Drosophila S2 cells
- Reagent: long dsRNA against Drosophila genes
- Detection: 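Dual luciferase plate measurements; E2F-specific signal taken as firefly over Renilla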
- Direction: E2F firefly: higher = more E2F reporter activity; Renilla normaliser: higher = more normaliser reporter signal
- Rule for the call: 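Called active if the normalised E2F reporter went up by over 50%; the cutoff is arbitrary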

gene	dsRNA	E2F firefly, rep 1	Renilla normaliser, rep 1	Outcome
CG13375	DRSC18621	1.20e5	5849	inactive
Madm	DRSC12129	1.19e5	6385	inactive
CG3483	DRSC04371	75633	3354	inactive
CG41099	DRSC21049	1.37e5	5783	inactive
CG41099	DRSC21051	1.34e5	5660	inactive
VhaAC39-2	DRSC15609	1.04e5	6438	inactive
CG17612	DRSC00505	84381	3716	inactive
Rel	DRSC16819	81685	4126	inactive
beat-Ib	DRSC03490	97532	4416	inactive
mira	DRSC16998	65608	3158	inactive
Bgb	DRSC08148	65166	3554	inactive
CG13630	DRSC14631	76837	4221	inactive
CG11980	DRSC14456	69430	3475	inactive
CG1983	DRSC15410	1.35e5	7197	inactive
Smn	DRSC10223	81674	3929	inactive
fest	DRSC07349	1.48e5	4905	inactive
Iml1	DRSC08249	68256	3029	inactive
a10	DRSC11319	1.32e5	5569	inactive
CG10147	DRSC09706	1.05e5	4044	inactive
Or82a	DRSC11996	83140	3546	inactive
CG31368	DRSC14949	1.53e5	6904	inactive
CG31368	DRSC14951	74882	3882	inactive
InR	DRSC16717	1.47e5	7345	inactive
CG11192	DRSC06057	1.38e5	4894	inactive
Pgam5-2	DRSC04278	1.20e5	4570	inactive
GstE8	DRSC06678	79184	3516	inactive
retn	DRSC04679	1.02e5	4754	inactive
Cpr49Ac	DRSC07199	2682	198	inactive
CG1750	DRSC15240	1914	1024	inactive
CG1850	DRSC06762	1.48e5	5560	inactive
CG17349	DRSC02610	87232	3953	inactive
CG1314	DRSC20495	1.64e5	5720	inactive
kumpel	DRSC14883	1.25e5	6738	inactive
kumpel	DRSC16459	1.17e5	6503	inactive
kumpel	DRSC16460	1.13e5	5545	inactive
kumpel	DRSC16461	1.08e5	5960	inactive
kumpel	DRSC16462	1.10e5	6403	inactive
kumpel	DRSC16463	95275	5970	inactive
twy	DRSC10562	1.27e5	7106	inactive

A stretch from the list above, as a working copy:
gene	dsRNA	E2F firefly, rep 1	Renilla normaliser, rep 1	Outcome
Cpr49Ac	DRSC07199	2682	198	inactive
CG1750	DRSC15240	1914	1024	inactive
CG1850	DRSC06762	1.48e5	5560	inactive
CG17349	DRSC02610	87232	3953	inactive
CG1314	DRSC20495	1.64e5	5720	inactive
kumpel	DRSC14883	1.25e5	6738	inactive
kumpel	DRSC16459	1.17e5	6503	inactive
kumpel	DRSC16460	1.13e5	5545	inactive

Continued:
gene	dsRNA	E2F firefly, rep 1	Renilla normaliser, rep 1	Outcome
Spc105R	DRSC11663	93912	8612	inactive
CG7724	DRSC10905	75197	3414	inactive
TpnC41C	DRSC04916	1.26e5	5401	inactive
CG7878	DRSC16330	1.52e5	6840	inactive
Jheh1	DRSC06529	74575	3144	inactive
Eig71Ej	DRSC11157	1.59e5	6869	inactive
Jra	DRSC07447	4300	197	inactive
Tsp42Ed	DRSC05940	1.39e5	4605	inactive
CG34230	DRSC05317	1.32e5	4572	inactive
Spt3	DRSC15465	1.09e5	5251	inactive
CG17929	DRSC15291	1.27e5	6238	inactive
CG6362	DRSC07413	1.35e5	4866	inactive
CG14321	DRSC14800	1.23e5	9588	inactive
fz	DRSC11348	1.79e5	9242	inactive
Glut1	DRSC07927	1.23e5	4005	inactive
Glut1	DRSC08662	70615	3339	inactive
CG31099	DRSC14252	1.02e5	5810	inactive
CAH2	DRSC10746	1.26e5	6876	inactive
CycE	DRSC03295	51689	198	inactive
CycE	DRSC03296	65193	118	inactive
GCS2beta	DRSC02960	52558	3168	inactive
CG11816	DRSC19428	89882	4512	inactive
CG11885	DRSC00329	59470	3874	inactive
Trx2	DRSC03622	1.47e5	5885	inactive
Ance-3	DRSC02648	1.12e5	4507	inactive
Ance-3	DRSC02649	99658	3791	inactive
Phyhd1	DRSC14911	1.25e5	5851	inactive
Pkg21D	DRSC00772	79905	3390	inactive
mus302	DRSC09905	1.65e5	8707	inactive
tpr	DRSC04468	77291	3134	inactive
Erasp	DRSC07111	70395	3128	inactive
lola	DRSC05220	1.21e5	4373	inactive
lola	DRSC05221	1.58e5	4959	inactive
lola	DRSC05222	1.29e5	4334	inactive
lola	DRSC05223	89827	3185	inactive
lola	DRSC05224	1.33e5	4890	inactive
lola	DRSC06738	2424	227	inactive
lola	DRSC06739	1.49e5	5325	inactive
lola	DRSC06740	2796	204	inactive
lola	DRSC06741	1.40e5	4859	inactive
lola	DRSC06742	1.37e5	4118	inactive
lola	DRSC07646	2532	218	inactive
lola	DRSC07647	1.54e5	4780	inactive
PXo	DRSC09734	81714	3462	inactive
CG6878	DRSC10737	1.43e5	8340	inactive
